PubChem BioAssay AID1259254 | NCATS – 2017

Purpose: 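Genome-wide screen for genes that prevent DNA re-replication in cancer cells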 (primary screen)
Cell system: human HCT116 colorectal cancer cells
Knock-down reagent: single siRNA against human genes
Duration: 3 days
Detection: 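Imaged Hoechst DNA stain sorts each cell into a cycle phase by DNA amount; per plate, G2 fraction set to 0% for non-targeting and 100% for GMNN siRNA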
Reading the numbers: G2 robust z-score: higher = more G2 cells, more excess DNA replication
Hit rule: 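Active siRNAs have a G2 robust z of 5 or more median absolute deviations over the median, which in these data means about 38% or higher of GMNN control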
The deposit covers about 59,000 reagents; shown is a part drawn at random. About 1,550 of all reagents (2.6%) were called active. 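G2 share is only a proxy for re-replication; each gene was hit by three separate siRNAs, and active genes were retested.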 Unmarked entries are inactive. The numbers tell different reagents against one gene apart. Not all columns of the deposit are shown. Reagent sequences are not shown. Not given: the amount of reagent.

{"Gene": "GRAMD4", "reagent": 1, "G2 robust z-score": 1.63}
{"Gene": "GRAMD4", "reagent": 2, "G2 robust z-score": 3.03}
{"Gene": "GRAMD4", "reagent": 3, "G2 robust z-score": -0.983}
{"Gene": "B3GALNT2", "reagent": 1, "G2 robust z-score": 1.35}
{"Gene": "B3GALNT2", "reagent": 2, "G2 robust z-score": -0.437}
{"Gene": "B3GALNT2", "reagent": 3, "G2 robust z-score": 2.21}
{"Gene": "CCDC13-AS2", "reagent": 1, "G2 robust z-score": -0.249}
{"Gene": "CCDC13-AS2", "reagent": 2, "G2 robust z-score": 1.55}
{"Gene": "CCDC13-AS2", "reagent": 3, "G2 robust z-score": 0.578}
{"Gene": "ZNF707", "reagent": 1, "G2 robust z-score": -1.02}
{"Gene": "ZNF707", "reagent": 2, "G2 robust z-score": -0.727}
{"Gene": "ZNF707", "reagent": 3, "G2 robust z-score": -0.185}
{"Gene": "CD69", "reagent": 1, "G2 robust z-score": -0.215}
{"Gene": "CD69", "reagent": 2, "G2 robust z-score": 0.517}
{"Gene": "CD69", "reagent": 3, "G2 robust z-score": -0.729}
{"Gene": "AMIGO2", "reagent": 1, "G2 robust z-score": 1.67}
{"Gene": "AMIGO2", "reagent": 2, "G2 robust z-score": -0.744}
{"Gene": "AMIGO2", "reagent": 3, "G2 robust z-score": -0.0798}

Entries listed so far whose gene name begins with B or b (3):
{"Gene": "B3GALNT2", "reagent": 1, "G2 robust z-score": 1.35}
{"Gene": "B3GALNT2", "reagent": 2, "G2 robust z-score": -0.437}
{"Gene": "B3GALNT2", "reagent": 3, "G2 robust z-score": 2.21}
